Data published in paper PMC4654539.
Results are given in words; binding and its absence hold for the method and conditions named. In cells and extracts the contact can be indirect. A result given as binding can be weak or reduced; the word gives no strength. Sequences can lack the tags named with a protein.

Target: T1, human cytochrome P450c17 fused to a fluorescent protein at the C-terminus (human) (UniProt P05093)
T1 sequence: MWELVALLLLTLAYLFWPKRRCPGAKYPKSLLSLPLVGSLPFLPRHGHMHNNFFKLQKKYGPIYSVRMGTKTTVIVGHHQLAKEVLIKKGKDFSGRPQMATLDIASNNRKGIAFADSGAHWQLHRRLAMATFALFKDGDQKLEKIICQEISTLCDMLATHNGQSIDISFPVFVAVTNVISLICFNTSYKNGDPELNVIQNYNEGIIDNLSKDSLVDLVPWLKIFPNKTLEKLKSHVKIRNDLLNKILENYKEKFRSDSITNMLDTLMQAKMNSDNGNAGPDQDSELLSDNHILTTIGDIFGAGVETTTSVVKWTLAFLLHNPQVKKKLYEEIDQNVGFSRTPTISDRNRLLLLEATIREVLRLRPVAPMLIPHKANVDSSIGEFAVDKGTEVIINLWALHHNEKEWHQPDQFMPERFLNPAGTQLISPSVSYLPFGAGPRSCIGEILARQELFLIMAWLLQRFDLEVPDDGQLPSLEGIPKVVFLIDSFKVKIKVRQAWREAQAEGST
Experiment: FRET or BRET; living HEK293 or H295 cells co-transfected with CFP and YFP fusion constructs; FRET ratio from the enhanced acceptor emission, a ratio >1.0 indicates close association

- binding: binds
Substance: NADPH-cytochrome P450 oxido-reductase fused to a fluorescent protein at the C-terminus (enzyme)
